Consider one molecule from patent publication US20210189010A1.

Test [1] deals with T1, human thymidine kinase 1 (hTK1) (human) (UniProt P04183).
T1 sequence (looked up): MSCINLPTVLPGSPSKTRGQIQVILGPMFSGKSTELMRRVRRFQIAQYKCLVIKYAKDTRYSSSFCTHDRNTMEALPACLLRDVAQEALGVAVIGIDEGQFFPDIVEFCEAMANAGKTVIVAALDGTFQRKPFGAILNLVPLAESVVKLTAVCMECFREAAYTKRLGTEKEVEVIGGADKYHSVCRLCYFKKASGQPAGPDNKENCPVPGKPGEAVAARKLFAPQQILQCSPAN
The test is described as follows: ELISA on TK1 antigen-coated plate.

The target in test [2] is T2, C-terminal 31-peptide of hTK1 (human) (UniProt P04183).
T2 sequence (peptide, coupled to agarose gel column, looked up): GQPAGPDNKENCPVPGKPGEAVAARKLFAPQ
In words: affinity chromatography on antigen-coupled agarose column.

Results are given in words; binding and its absence hold for the method and conditions named. Some binding calls cover weakened binding; strength is not graded here. Tags and fused reporters may be left off the sequences shown.

B1: anti-hTK1 recombinant chicken IgY single-chain antibody (scFv) with SBP-tag, expressed in E. coli BL21(DE3) from pET22b (scFv, not shown: small tags and cut ends)
scFv: AVTLDESGGGLQTPGGTLSLVCKASGFTFSDYGMNWVRQAPGKGLEFVAGIENDGSSTWYATAVKGRATISRDNGQSTVRLQLNNLRAEDTATYFCAKDFSSGYGGWSASGGIDAWGHGTEVIVSSGGGSGGGGSGGGGSGGGSALTQPSSVSANPGETVKITCSGDRSSYYGYYGWYQQKAPGSAPLTVIYYSSNRPTNIPSRFSGSKSGSTATLTITGVRAEDEAVYYCGSAEDSSYAAIFGAGTTL
As to B1, the binding entry in test [1] and in test [2] was “binds” in each case.
